At least one structure is not confirmed: it was looked up by name or label, or the drawing left a doubt.
System: primary hippocampal cultures
Type: cell-based, rat
Conditions: 100-200 nanomolar, data not shown

COC[C@H]1OC(=O)c2coc3c2[C@@]1(C)C1=C(C3=O)[C@@H]2CCC(=O)[C@@]2(C)C[C@H]1OC(C)=O [wortmannin]
kinetics of cell death (TUNEL) compared with LY294002: Same kinetics were observed

— patent US7482318B2, “Protein kinase domain of the large subunit of herpes simplex type 2 ribonucleotide reductase (icp 10pk) has anti-apoptotic activity” (priority 2000, dated 2009)
